The list is a part of this screen's results and no random one: it gathers tests that were run many times, whatever their T/C, doses with no T/C, and many T/C values between a quarter and a half above the control. Further doses and runs are listed elsewhere. T/C is the treated group as % of the vehicle group. Some entries give survivors of the animals treated and no T/C: the source files T/C as zero there, which appears to mark a toxic dose or a test without result, not a measured value. Some survivor counts are full or nearly so, which does not show that the dose was tolerated: survival well below the control is almost never listed, so the zero probably covers shortened survival too. Counts of survivors are from the toxicity check (mostly the fifth day) where no day follows; animals may have died later. Schedule codes are those of the source, read here as Q, the interval in days (D) or hours (H), X, the number of doses. Some schedules carry Z or #; the key to these is not given. Some entries were tested several times; the values are given in rising order.
System: L1210 leukemia ip in BDF1 mice, survival T/C
Test: NCI In Vivo Anticancer Drug Screen. Data for tumor model L1210 Leukemia (intraperitoneal) in B6D2F1 (BDF1) mice
Conditions: T/C endpoint: mean survival time, higher T/C = longer survival
[1] = dose: 75.0 mg/kg/injection, schedule: Q01DX001 (ip), vehicle: saline
[2] = dose: 150.0 mg/kg/injection, schedule: Q01DX001 (ip), vehicle: saline
[3] = dose: 300.0 mg/kg/injection, schedule: Q01DX001 (ip), vehicle: saline
[4] = dose: 200.0 mg/kg/injection, schedule: Q01DX001 (ip), vehicle: saline
[5] = dose: 400.0 mg/kg/injection, schedule: Q01DX001 (ip), vehicle: saline
[6] = dose: 100.0 mg/kg/injection, schedule: Q04DX003 (ip), vehicle: saline
[7] = dose: 200.0 mg/kg/injection, schedule: Q04DX003 (ip), vehicle: saline
[8] = dose: 400.0 mg/kg/injection, schedule: Q04DX003 (ip), vehicle: saline
[9] = dose: 200.0 mg/kg/injection, schedule: Q04DX002 (ip), vehicle: Klucel (hydroxypropylcellulose) (HPC)
[10] = dose: 400.0 mg/kg/injection, schedule: Q04DX002 (ip), vehicle: Klucel (hydroxypropylcellulose) (HPC)
[11] = dose: 400.0 mg/kg/injection, schedule: Q01DX009 (ip), vehicle: Klucel (hydroxypropylcellulose) (HPC)

In the case of `CC(=O)N(C(C)C)C(C)C`, the survivor count (dose: 6.25 mg/kg/injection, schedule: Q01DX001 (ip), vehicle: saline with Tween-80) is reported as 0 of 6, the survivor count (dose: 12.5 mg/kg/injection, schedule: Q01DX001 (ip), vehicle: saline with Tween-80) is reported as 0 of 6 and the survivor count (dose: 25.0 mg/kg/injection, schedule: Q01DX001 (ip), vehicle: saline with Tween-80) is reported as 1 of 6. The survivor count (dose: 50.0 mg/kg/injection, schedule: Q01DX001 (ip), vehicle: saline with Tween-80) was 0 of 6, the survivor count (dose: 100.0 mg/kg/injection, schedule: Q01DX001 (ip), vehicle: saline with Tween-80) was 0 of 6 and the survivor count (dose: 200.0 mg/kg/injection, schedule: Q01DX001 (ip), vehicle: saline with Tween-80) was 0 of 6. For the same compound, the survivor count (dose: 400.0 mg/kg/injection, schedule: Q01DX001 (ip), vehicle: saline with Tween-80) was 0 of 6.

For `NC(N)=N/N=C/c1cccc([N+](=O)[O-])c1`, the survivor count (dose: 120.0 mg/kg/injection, schedule: Q01DX Z (ip), vehicle: carboxymethylcellulose (CMC)) was 0 of 6.

`O=S1(=O)C2CCCC1CCC2` was tested, and the survivor count (dose: 20.0 mg/kg/injection, schedule: Q01DX001 (ip), vehicle: saline) was 0 of 6 and 2 of 6, the survivor count (dose: 40.0 mg/kg/injection, schedule: Q01DX001 (ip), vehicle: saline) was 0 of 6 and the survivor count [1] was 0 of 6. The survivor count [2] was 0 of 6 and the survivor count [3] was 0 of 6.

With `C[N+]1(CCNC2=CC(=O)C(NCC[N+]3(C)CCOCC3)=CC2=O)CCOCC1` the survivor count (dose: 100.0 mg/kg/injection, schedule: Q01DX001 (ip), vehicle: saline) was 2 of 6, the survivor count [4] was 0 of 6 and the survivor count [5] was 0 of 6.

With `CCCCCCCCCCNC(=O)C[n+]1cccc(C(=O)N(CC)CC)c1` the survivor count [6] was 1 of 6, the survivor count [7] was 0 of 6 and the survivor count [8] was 0 of 6.

In the case of `COc1cc(NC(=O)Nc2ccccc2Cl)c(OC)cc1Cl`, the survivor count (dose: 200.0 mg/kg/injection, schedule: Q04DX002 (ip), vehicle: saline with Tween-80) is reported as 3 of 3 and the survivor count (dose: 400.0 mg/kg/injection, schedule: Q04DX002 (ip), vehicle: saline with Tween-80) is reported as 3 of 3.

With `O=C(O)C1CCC(CC2CC3CCC2C3)CC1` (stereo not given) the survivor count (dose: 400.0 mg/kg/injection, schedule: Q01DX009 (ip), vehicle: saline with Tween-80) was 0 of 6.

For `c1ccc(-c2nn(-c3ccccc3)[n+](-c3cccc4ccccc34)n2)cc1`, the survivor count (dose: 8.0 mg/kg/injection, schedule: Q01DX015 (ip), vehicle: carboxymethylcellulose (CMC)) was 3 of 6, the survivor count (dose: 16.0 mg/kg/injection, schedule: Q01DX015 (ip), vehicle: carboxymethylcellulose (CMC)) was 0 of 6 and the survivor count (dose: 32.0 mg/kg/injection, schedule: Q01DX015 (ip), vehicle: carboxymethylcellulose (CMC)) was 0 of 6.

In the case of `C=C(Br)CNC(=O)Nc1c2ccccc2nc2ccccc12`, the survivor count (dose: 25.0 mg/kg/injection, schedule: Q01DX009 (ip), vehicle: Klucel (hydroxypropylcellulose) (HPC)) is reported as 6 of 6, the survivor count (dose: 50.0 mg/kg/injection, schedule: Q01DX009 (ip), vehicle: Klucel (hydroxypropylcellulose) (HPC)) is reported as 6 of 6 and the survivor count (dose: 75.0 mg/kg/injection, schedule: Q01DX009 (ip), vehicle: Klucel (hydroxypropylcellulose) (HPC)) is reported as 6 of 6.

For `CC(=O)N1C(C)C1(c1ccccc1)[n+]1ccccc1` (stereo not given), the survivor count [6] was 3 of 6, the survivor count [7] was 0 of 6 and the survivor count [8] was 0 of 6.

In the case of `CCC(C)(C)c1ccc(Oc2ccccc2)c(N)c1`, the survivor count (dose: 400.0 mg/kg/injection, schedule: Q01DX009 (ip), vehicle: other) is reported as 4 of 6.

With `NC(N)=Nc1ccc([N+](=O)[O-])cc1` the survivor count (dose: 100.0 mg/kg/injection, schedule: Q04DX002 (ip), vehicle: Klucel (hydroxypropylcellulose) (HPC)) was 0 of 3, the survivor count [9] was 0 of 3 and the survivor count [10] was 0 of 3.

For `O=C1NC2(c3ccccc3)CCCCC2O1` (stereo not given), the survivor count (dose: 150.0 mg/kg/injection, schedule: Q01DX001 (ip), vehicle: acetone) was 5 of 6.

With `C=C1N2CCC(CC2)C1(O)c1ccccc1` (stereo not given) the survivor count (dose: 25.0 mg/kg/injection, schedule: Q04DX003 (ip), vehicle: Klucel (hydroxypropylcellulose) (HPC)) was 1 of 6, the survivor count (dose: 50.0 mg/kg/injection, schedule: Q04DX003 (ip), vehicle: Klucel (hydroxypropylcellulose) (HPC)) was 0 of 6 and the survivor count [6] was 0 of 6. For the same compound, the survivor count [7] was 0 of 6 and the survivor count [8] was 0 of 6.

With `NC(N)=NC(N)=Nc1ccc(N=C(N)N=C(N)N)cc1` the survivor count (dose: 200.0 mg/kg/injection, schedule: Q01DX001 (ip), vehicle: other) was 1 of 6 and the survivor count (dose: 400.0 mg/kg/injection, schedule: Q01DX001 (ip), vehicle: other) was 1 of 6.

For `CC(C)=NNc1ccc([N+](=O)[O-])cc1[N+](=O)[O-]`, the survivor count [9] was 3 of 3.

`O=C(c1ccc2cc(Cl)c(Cl)cc2c1)C(Cl)Cl` was tested, and the survivor count [9] was 1 of 3 and the survivor count [10] was 0 of 3.

`CCSc1n[nH]c(=O)nc1NN` was tested, and the survivor count [1] was 0 of 6, the survivor count [2] was 0 of 6 and the survivor count [3] was 0 of 6.

With `CCCCCCCCC1CCC(N)CC1` (stereo not given) the survivor count [11] was 6 of 6.

With `CC(=O)OCC1OC(S[As](C)C)C(OC(C)=O)C(OC(C)=O)C1OC(C)=O` (stereo not given) the survivor count [11] was 4 of 6.

`O=C(NOS(=O)(=O)O)c1ccccc1` was tested, and the survivor count (dose: 100.0 mg/kg/injection, schedule: Q01DX009 (ip), vehicle: saline) was 6 of 6, the survivor count [4] was 0 of 6 and the survivor count [5] was 0 of 6.

With `NC(N)=N/N=C\c1c[nH]c2ccc(Br)cc12` the survivor count (dose: 120.0 mg/kg/injection, schedule: Q01DX Z (oral), vehicle: saline) was 6 of 6, the survivor count (dose: 480.0 mg/kg/injection, schedule: Q01DX Z (ip), vehicle: saline) was 1 of 6 and the survivor count (dose: 960.0 mg/kg/injection, schedule: Q01DX Z (oral), vehicle: saline) was 3 of 6.

In the case of `C=CCOP(OCC=C)OCC=C`, the survivor count [7] is reported as 2 of 6.

`COc1ccc(CN2CCCN(Cc3ccc(OC)cc3)C2c2ccc(NC(C)=O)cc2)cc1` was tested, and the survivor count (dose: 400.0 mg/kg/injection, schedule: Q01DX001 (ip), vehicle: acetone) was 2 of 4.

For `CCCCCCCCCCC1CCC2CCC3CCCC4CCC1C2C34` (stereo not given), the survivor count [5] was 6 of 6.
